Test results taken from US20070092444A1, “Inhibition of inward sodium currents in cancer” (priority 2003, published 2007).
For at least one compound, name, drawing or mass did not settle the structure.

Assays:
[1] = system: SKMG, U373, and U251 glioma cell lines; experiment: MTT Cell Proliferation Assay, three GBM cell lines; type: cell-based, human; settings: drug concentrations between 10-100 μM
Experimental: Cells were plated in 96-well plates at 1000, 4000, and 2000 cells/well for SK-MG, U373, and U251 cells, respectively. Drug was added at specified concentration on day 3 after plating (at the beginning of log phase of growth).
If the Na^+ conductance seen in high-grade glioma cells was required or linked to the high rate of cell growth, inhibition of the pathway should result in inhibition of cell growth and/or cell death. […] However, benzamil is ineffective in inhibiting Na^+/H^+ exchange in glial cells (73), yet still can inhibit proliferation in this assay. […] Therefore, inhibition of the inward Na^+ current results in inhibition and/or stoppage of cell growth. These observations establish the importance of this pathway in tumor cell biology.

Na^+/H^+ exchange = settings: glial / glioma cells; references 72, 73; cited from earlier work
U87-MG cells = experiment: Transwell Migration Assay, U87-MG cells; type: cell-based, human; settings: concentration-dependent
SK-MG cells = experiment: Transwell Migration Assay, SK-MG cells; type: cell-based, human; settings: concentration-dependent
D54-MG glioma cells = experiment: Transwell Migration Assay, D54-MG cells; type: cell-based, human; settings: benzamil 10, 20, 50, or 100 μM; 3 h; vitronectin
Experimental: 5-8 μm polycarbonate Transwell filters were coated on the lower surface with or vitronectin ([…] in PBS). […] of D54MG cells (400,000 cells/ml were added to the upper chamber), in the presence or absence of benzamil, and migration was allowed to proceed for 3 hours. Migration was determined according to standard procedures (120). N-amidino-3,5-diamino-pyrazinecarboxamide was used as a control.
To begin to investigate the role of the inward Na^+ conductance in the invasive behavior of tumor cells, a Transwell Migration Assay was used to assess cell chemotaxis and invasiveness (FIG. 17). D54-MG cells were plated on the upper side of a filter insert perforated with 5-8 μm holes, and induced to migrate through these pores toward the extracellular matrix protein vitronectin (coated on the underside of the filter). Benzamil, at 10, 20, 50, or 100 μM, was added to both chambers at time 0. After a 3 h migration time, cells were fixed, stained with crystal violet, and counted. BSA-coated filter inserts were used as negative controls. […]
Approximately 10,000 cells were added to the upper side of a filter insert perforated with 5-8 μm holes, and induced to migrate through these pores toward the extracellular matrix protein vitronectin (coated on the underside of the filter). […] Cells were counted on an inverted microscope, averaging five fields per Transwell chamber. […]

In the case of NC(=NCc1ccccc1)NC(=O)c1nc(Cl)c(N)nc1N [benzamil], the “relative rate of proliferation” value [1] is listed as “significantly inhibited”, the “inhibition of Na^+/H^+ exchange” value (Na^+/H^+ exchange) is listed as “ineffective” and the Transwell migration (U87-MG cells) is listed as “inhibited”. For the same compound, the Transwell migration (SK-MG cells) was “inhibited” and the Transwell migration (D54-MG glioma cells) was “inhibited”.
